Measurements from PubChem BioAssay AID2685 (National Center for Advancing Translational Sciences (NCATS), 2010).
The list shows a part of the results. Further columns of the screen follow, without active or inactive calls. The list favours compounds with an active or inconclusive main result. Words in brackets tell the shape of the fitted curve; partial curves, single points and poor fits give uncertain potencies.

Assay: qHTS Assay for Lipid Storage Modulators in Drosophila S3 Cells;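 on cell number change: cells counted by Cell Tracker Red CMTPX staining in the red channel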
Conditions: BODIPY lipid droplet fluorescence, 18-24 h; for cell number change: measured here: cell count max response, cells fed with added oleic acid
Procedure, shortened: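 Drosophila S3 cells loaded with oleic acid (400 uM, as added) and compounds at several concentrations; lipid droplets imaged by 488-nm laser-scanning cytometry, 500–530 nm intensity and object ratio to cell channel. Percent activity normalized to 20 uM Triacsin C.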

[1] = measured here: lipid fluorescence (Fed channel) AC50, cells fed with added oleic acid
[2] = measured here: cell number channel AC50, cells fed with added oleic acid

Compound | cell number change | AC50 [1] | AC50 [2]
CCn1c(=O)c2c(cnn2C)c2ccccc21 | -21.6% | 411 nM [rising, partial curve, poor fit] | –
COc1cc(C)c(C)cc1S(=O)(=O)N1CCN(Cc2ccc3c(c2)OCO3)CC1 | -18.4% | – | –
c1ccc2c(c1)NC1(CCCCCC1)n1c-2nc2ccccc21 | 28.1% | 92 nM [rising, full curve, poor fit] | –
CC(C)(C)OC(=O)N1CCN(C(=O)c2[nH]cnc2C(=O)NCc2ccccc2)CC1 | -36.2% | 651 nM [falling, single point] | 130 nM [falling, full curve, poor fit]
CCOc1ccc(N(C(=O)CNC(=O)c2ccco2)C(C(=O)NC2CCCC2)c2cccnc2)cc1 (stereo unspecified) | -10.5% | – | –
COc1ccc(NC(=O)Cn2nnc(-c3ccccc3NC(=O)c3cccs3)n2)cc1 | -13.6% | 29100 nM [falling, single point] | 820 nM [rising, full curve, poor fit]
O=C1NC(=S)S/C1=C/c1ccc(N2CCOCC2)o1 | -96.9% | 4610 nM [falling, full curve] | 5170 nM [falling, full curve]
NS(=O)(=O)c1ccc(N/N=C/c2ccccn2)c([N+](=O)[O-])c1 | – | 29100 nM [rising, single point] | –
COc1ccc(-c2csc(NC(=O)C3CC(=O)N(Cc4ccccc4)C3)n2)cc1OC (stereo unspecified) | -18.1% | 3660 nM [falling, partial curve] | –
Cc1ccc(N2C(N)=C(C#N)C(c3cccnc3)C3=C2CCCC3=O)cc1 (stereo unspecified) | 1.98% | 731 nM [rising, full curve, poor fit] | –
COc1ccc2[nH]c(C(=O)N3CCN(C)CC3)c(C)c2c1 | 21.6% | – | –
O=C(CCCCn1c(=O)[nH]c2ccccc2c1=O)N1CCN(c2ncccn2)CC1 | 13.7% | 731 nM [rising, full curve] | –
COc1cc(-c2c(-c3ccc4c(c3)OCO4)noc2-c2ccsc2)ccc1F | -5.69% | – | –
Cn1c(SC2C(=O)CC(C)(C)CC2=O)nnc1-c1ccco1 | -2.64% | 29100 nM [falling, single point] | 5.17 nM [falling, full curve, poor fit]
CC1CC1C(=O)OCC(=O)Nc1cccc(S(=O)(=O)NC2=NCCCCC2)c1 (stereo unspecified) | 8.22% | 16400 nM [rising, single point] | –
O=C(c1ccc(Br)o1)N1CCN(c2ccc(F)cc2)CC1 | -0.944% | 6510 nM [rising, full curve, poor fit] | –

Part of the list above in order of count of non-hydrogen atoms, ascending:
Compound | cell number change | AC50 [1] | AC50 [2]
Cn1c(SC2C(=O)CC(C)(C)CC2=O)nnc1-c1ccco1 | -2.64% | 29100 nM [falling, single point] | 5.17 nM [falling, full curve, poor fit]
c1ccc2c(c1)NC1(CCCCCC1)n1c-2nc2ccccc21 | 28.1% | 92 nM [rising, full curve, poor fit] | –
COc1ccc(NC(=O)Cn2nnc(-c3ccccc3NC(=O)c3cccs3)n2)cc1 | -13.6% | 29100 nM [falling, single point] | 820 nM [rising, full curve, poor fit]
